We go through eight molecules from patent publication US20200392228A1.

Where a chain is given by its changes, count along the chain named. No constants are given. Whether binding was seen depends on the method and setting. Binding calls can cover weak binding; strength is not graded here.

B1: MAdCAM antibody Clone ID 14 of Table 7 (IgG) (antibody, V domains shown)
VH: QVQLVQSGAEVKKPGSSVKVSCKASGYTFTNYYMHWVRQAPGQGLEWMGGIIPIVDGVKYAQKFQGRVTITADESTSTAYMELSSLRSEDTAVYYCAKGQFTGNYYYGMDYWGQGTLVTVSS
VL: DIQMTQSPSSLSASVGDRVTITCQANQDISNYLNWYQQKPGKAPKLLIYRASKLEAGVPSRFSGSGSGTDFTLTISSLQPEDFATYYCQQSSEIPYSFGQGTKVEIK
B2: MAdCAM antibody Clone ID 7 of Table 7 (IgG) (antibody, V domains shown)
VH: EVQLLESGGGLVQPGGSLRLSCAASGFTFSDYQMSWVRQAPGKGLEWVAIISHADGGFKDYADSVKGRFTISRDNSKNTLYLQMNSLRAEDTAVYYCAKPYSSGWSAVYYFDYWGQGTLVTVSS
VL: DIQMTQSPSSLSASVGDRVTITCRASRGITNDLGWYQQKPGKAPKLLIYAASTLQSGVPSRFSGSGSGTDFTLTISSLQPEDFATYYCQQAYSFPWTFGQGTKVEIK
B3: MAdCAM antibody Clone ID 23 of Table 6 (scFv) (scFv)
scFv: EVQLLESGGGLVQPGGSLRLSCAASGFTFSSYAMHWVRQAPGKGLEWVSGISGSGGSAYYADSVKGRFTISRDNSKNTLYLQMNSLRAEDTAVYYCATSQAPVDYYYYGMDVWGQGTTVTVSSGGGGSGGGGSGGGGSGGGGSDIQMTQSPSSLSASVGDRVTITCRASQSISSWLAWYQQKPGKAPKLLIYAASNLQRGVPSRFSGSGSGTDFTLTISSLQPEDFATYYCQQSYSIPITFGQGTKVEIK
B4: MAdCAM antibody Clone ID 6 of Table 7 (IgG) (antibody, V domains shown)
VH: EVQLLESGGGLVQPGGSLRLSCAASGFTFNNYAFHWVRQAPGKGLEWVSRINSYGTSTTYADSVKGRFTISRDNSKNTLYLQMNSLRAEDTAVYYCAREGPVAGYWYFDLWGQGTLVTVSS
VL: DIQMTQSPSSLSASVGDRVTITCRASQIIGTNLAWYQQKPGKAPKLLIYGASSLQSGVPSRFSGSGSGTDFTLTISSLQPEDFATYYCQQSYRLPFTFGQGTKVEIK
B5: MAdCAM antibody Clone ID 24 of Table 7 (IgG) (antibody, V domains shown)
VH: EVQLVESGGGLVKPGGSLRLSCAASGFTFSSYWMSWVRQAPGKGLEWVSRISSDGRITTYAAPVKGRFTISRDDSKNTLYLQMNSLKTEDTAVYYCARGTSYCTGGVCDIDYWGQGTLVTVSS
VL: B4 VL with I28S, T31R, A34N, G50S, S53N, R93S, L94I, F96L, Q100P, E105D
B6: MAdCAM antibody Clone ID 20 of Table 6 (scFv) (scFv)
scFv: EVQLLESGGGLVQPGGSLRLSCAASGFTFDDYAMHWVRQAPGKGLEWVSYIDTSSSHLYYADSVKGRFTISRDNSKNTLYLQMNSLRAEDTAVYYCARDEAAAGYYGMDVWGQGTTVTVSSGGGGSGGGGSGGGGSGGGGSDIQMTQSPSSLSASVGDRVTITCQAGQDISNYLNWYQQKPGKAPKLLIYDASNLETGVPSRFSGSGSGTDFTLTISSLQPEDFATYYCQQTYSTPITFGQGTKLEIK
B7: MAdCAM antibody Clone ID 75 of Table 7 (IgG) (antibody, V domains shown)
VH: EVQLLESGGGLVQPGGSLRLSCAASGFTFSDFWMHWVRQAPGKGLEWISYISGDSGYTNYADSVKGRFTISRDNSKNTLYLQMNSLRAEDTAVYYCARDRPYYYYMDVWGKGTTVTVSS
VL: DIQMTQSPSSLSASVGDRVTITCRASQSVSRSLAWYQQKPGKAPKLLIYAASSLQSGVPSRFSGSGSGTDFTLTISSLQPEDFATYYCQQYKSYPVTFGQGTKVEIK
B8: MAdCAM antibody Clone ID 2 of Table 6 (scFv) (scFv)
scFv: QVQLVQSGAEVKKPGASVKVSCKASGYPFIGYYLHWVRQAPGQGLEWMGIINPSGGSTSYAQKFQGRVTMTRDTSTSTVYMELSSLRSEDTAVYYCAREGRLSYGMDAWGQGTLVTVSSGGGGSGGGGSGGGGSGGGGSDIQMTQSPSSLSASVGDRVTITCRASQSISSYLAWYQQKPGKAPKLLIYGASTLESGVPSRFSGSGSGTDFTLTISSLQPEDFATYYCQQTWGPPFTFGQGTKLEIK

In the first experiment the target is Cyno MAdCAM protein (cyno). The experiment can be described thus: Octet.
As to B1, the binding entry was “no binding”. Turning to B2, the binding result is reported as “no binding”. On to B3, for which the binding result is “binds”.

For B4, the binding result is reported as “binds”.

B5: the binding entry was “no binding”.

For B6, the binding result was “binds”. As to B7, the binding result is “binds”. Regarding B8, the binding entry is “binds”.

A further experiment has as its target Cyno MAdCAM protein (cyno). The experiment can be described thus: ELISA.
As to B4, the binding entry is on record as “binds”. The same measure, in the same setting: the entry for B7 is “binds”.
